± gives the uncertainty stated by the source. Many of these values have a large error.
Experiment: self-splicing fitness, log relative to wild type (ln ratio); higher = more splicing; Tetrahymena group I intron in knt gene, E. coli kanamycin selection, DiMSum; sequences stand for … in CUCUCU…GGAGGGAAAAGUUAUCAGGCAUGCACCUGGUAGCUAGUCUUUAAACCAAUAGAUUGCAUCGGUUUAAAAGGCAAGACCGUCAAAUUGCGGGAAAGGGGUCAACAGCCGUUCAGUACCAAGUCUCAGGGGAAACUUUGAGAUGGCCUUGCAAAGGGUAUGGUAAUAAGCUGACGGACAUGGUCCUAACCACGCAGCCAAGUCCUAAGUCAACAGAUCUUCUGUUGAUAUGGAUGCAGUUCACAGACUAAAUGUCGGUCGGGGAAGAUGUAUUCUUCUCAUAAGAUAUAGUCGGACCUCUCCUUAAUGGGAGCUAGCGGAUGAAGUGAUGCAACACUGGAGCCGCUGGGAACUAAUUUGUAUGCGAAAGUAUAUUGAUUAGUUUUGGAGUACUCGUGGUCG
How it was run: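 A randomised library covering all eight P1ex-region intron nucleotides was built with the intron in the knt kanamycin-resistance gene on pET-22b(+) and held in E. coli BL21(DE3). Cells were grown overnight at 37°C or 30°C on LB agar, with or without 25 μg/mL kanamycin, plus 100 μg/mL carbenicillin, 50 μM IPTG and 0.2% rhamnose, and pooled colonies were amplicon-sequenced on an Illumina HiSeq 2500. DiMSum fitness is the error-weighted combination of wild-type-normalised replicate fold changes, kanamycin versus none.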

UGUAAGCAAUAUUACGUAGC
self-splicing fitness (ln) (30 °C): -3.21 ± 0.53

GACUAGCAAUAUUACGGCAA
self-splicing fitness (ln) (30 °C): -0.738 ± 0.08 | self-splicing fitness (ln) (37 °C): -0.302 ± 0.09

GCUGAGCAAUAUUACGCGCC
self-splicing fitness (ln) (37 °C): -1.24 ± 0.55

AGUUAGCAAUAUUACGCCUC
self-splicing fitness (ln) (30 °C): -3.92 ± 1 | self-splicing fitness (ln) (37 °C): -2.24 ± 0.55

GCCGAGCAAUAUUACGAUAC
self-splicing fitness (ln) (30 °C): -3.52 ± 1.1

CCGGAGCAAUAUUACGCGCC
self-splicing fitness (ln) (30 °C): -1.89 ± 0.32

— the supplement of paper PMC7877785
